The target of experiment [1] is T1, HA-tagged hnRNP R-FL (mouse) (UniProt Q8VHM5).
T1 sequence: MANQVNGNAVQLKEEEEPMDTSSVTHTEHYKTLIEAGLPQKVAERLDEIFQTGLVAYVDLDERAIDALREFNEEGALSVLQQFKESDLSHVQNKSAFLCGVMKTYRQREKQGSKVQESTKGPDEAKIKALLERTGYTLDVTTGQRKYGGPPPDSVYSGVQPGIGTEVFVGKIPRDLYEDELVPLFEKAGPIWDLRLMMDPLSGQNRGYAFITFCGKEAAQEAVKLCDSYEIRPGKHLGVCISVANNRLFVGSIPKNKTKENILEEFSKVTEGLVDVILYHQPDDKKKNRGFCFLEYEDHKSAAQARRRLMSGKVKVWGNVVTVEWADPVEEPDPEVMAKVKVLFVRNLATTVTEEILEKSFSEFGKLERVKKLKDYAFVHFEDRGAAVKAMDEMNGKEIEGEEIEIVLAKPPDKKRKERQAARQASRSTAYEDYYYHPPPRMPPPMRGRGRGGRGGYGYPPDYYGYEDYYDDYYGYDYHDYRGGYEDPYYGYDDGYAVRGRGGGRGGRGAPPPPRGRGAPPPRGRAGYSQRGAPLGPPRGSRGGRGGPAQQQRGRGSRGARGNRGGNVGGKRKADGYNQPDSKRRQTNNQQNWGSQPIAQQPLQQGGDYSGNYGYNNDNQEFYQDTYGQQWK
Briefly: affinity purification with mass spectrometry; #2 IP-MS: anti-HA magnetic beads, lysates of HEK293TN cells expressing hnRNP R-FL-HA, hnRNP R-ΔN-HA or EGFP-HA; lysis in the absence or presence of Benzonase (the sentence does not tell which).

The chains behind the UniProt entries cited, without tags or fusion partners.
UniProt P67809: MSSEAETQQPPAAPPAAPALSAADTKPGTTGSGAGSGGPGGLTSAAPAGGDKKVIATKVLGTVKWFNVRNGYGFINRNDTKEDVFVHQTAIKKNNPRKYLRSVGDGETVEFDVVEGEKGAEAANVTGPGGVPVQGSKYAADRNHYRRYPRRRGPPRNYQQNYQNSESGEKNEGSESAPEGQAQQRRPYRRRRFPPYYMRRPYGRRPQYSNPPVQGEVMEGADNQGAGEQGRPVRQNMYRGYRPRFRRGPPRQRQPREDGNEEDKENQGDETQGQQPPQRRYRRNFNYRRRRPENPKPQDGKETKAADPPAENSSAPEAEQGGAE

Experiment [2] deals with T1, HA-tagged hnRNP R-FL (mouse). Briefly: affinity purification with mass spectrometry; #2 IP-MS: anti-HA magnetic beads, lysates of HEK293TN cells expressing hnRNP R-FL-HA, hnRNP R-ΔN-HA or EGFP-HA, 0 Gy or 9 Gy, in the absence of Benzonase.

These are yes or no findings as the source states them, for the method shown. Binding seen in cells or lysates may run through a third protein. These calls come from enrichment with a bait or labelling near it, and not all partners need be listed. Sequences can lack the tags named with a protein.

For “Y-box binding protein 1 (Yb1), endogenous in HEK293TN cells (from UniProt P67809 1-324)”, the binding result in experiment [1] is listed as “binds”.

B1: Khsrp (protein, UniProt Q92945 1-711)
chain: MSDYSTGGPPPGPPPPAGGGGGAGGAGGGPPPGPPGAGDRGGGGPGGGGPGGGSAGGPSQPPGGGGPGIRKDAFADAVQRARQIAAKIGGDAATTVNNSTPDFGFGGQKRQLEDGDQPESKKLASQGDSISSQLGPIHPPPRTSMTEEYRVPDGMVGLIIGRGGEQINKIQQDSGCKVQISPDSGGLPERSVSLTGAPESVQKAKMMLDDIVSRGRGGPPGQFHDNANGGQNGTVQEIMIPAGKAGLVIGKGGETIKQLQERAGVKMILIQDGSQNTNVDKPLRIIGDPYKVQQACEMVMDILRERDQGGFGDRNEYGSRIGGGIDVPVPRHSVGVVIGRSGEMIKKIQNDAGVRIQFKQDDGTGPEKIAHIMGPPDRCEHAARIINDLLQSLRSGPPGPPGGPGMPPGGRGRGRGQGNWGPPGGEMTFSIPTHKCGLVIGRGGENVKAINQQTGAFVEISRQLPPNGDPNFKLFIIRGSPQQIDHAKQLIEEKIEGPLCPVGPGPGGPGPAGPMGPFNPGPFNQGPPGAPPHAGGPPPHQYPPQGWGNTYPQWQPPAPHDPSKAAAAAADPNAAWAAYYSHYYQQPPGPVPGPAPAPAAPPAQGEPPQPPPTGQSDYTKAWEEYYKKIGQQPQQPGAPPQQDYTKAWEEYYKKQAQVATGGGPGAPPGSQPDYSAAWAEYYRQQAAYYGQTPGPGGPQPPPTQQGQQQAQ
For the molecule B1, in experiment [2], the binding result is “binds”.

B2: LARP7 (protein, UniProt Q4G0J3 1-582)
chain: METESGNQEKVMEEESTEKKKEVEKKKRSRVKQVLADIAKQVDFWFGDANLHKDRFLREQIEKSRDGYVDISLLVSFNKMKKLTTDGKLIARALRSSAVVELDLEGTRIRRKKPLGERPKDEDERTVYVELLPKNVNHSWIERVFGKCGNVVYISIPHYKSTGDPKGFAFVEFETKEQAAKAIEFLNNPPEEAPRKPGIFPKTVKNKPIPALRVVEEKKKKKKKKGRMKKEDNIQAKEENMDTSNTSISKMKRSRPTSEGSDIESTEPQKQCSKKKKKRDRVEASSLPEVRTGKRKRSSSEDAESLAPRSKVKKIIQKDIIKEASEASKENRDIEISTEEEKDTGDLKDSSLLKTKRKHKKKHKERHKMGEEVIPLRVLSKSEWMDLKKEYLALQKASMASLKKTISQIKSESEMETDSGVPQNTGMKNEKTANREECRTQEKVNATGPQFVSGVIVKIISTEPLPGRKQVRDTLAAISEVLYVDLLEGDTECHARFKTPEDAQAVINAYTEINKKHCWKLEILSGDHEQRYWQKILVDRQAKLNQPREKKRGTEKLITKAEKIRLAKTQQASKHIRFSEYD
Take B2: in experiment [2], the binding entry is “binds”.

Values taken from PMC8643683, “Loss of full-length hnRNP R isoform impairs DNA damage response in motoneurons by inhibiting Yb1 recruitment to chromatin” (Nucleic Acids Research, 2021).
